# Measured values published in patent publication US7635708B2, “Methods and pharmaceutical compositions for inhibiting tumor cell growth” (Dana-Farber Cancer Institute, priority 1996, dated 2009).
# At least one structure is not confirmed: it was looked up by name or label, or the drawing left a doubt.
# Tested on: primary liposarcoma cells
# Assay: Adipocyte differentiation of primary cells isolated from three human liposarcomas (LS857, LS175, LS707)
# Assay type: cell-based
# Conditions: 7 days (pioglitazone 10 μM)
# Protocol: BrdU labeling was performed using the labeling kit (Boehringer Mannheim) according to the manufacturers instructions.
# To address this possibility, primary cells isolated from three human liposarcomas were cultured in vitro (see Materials and Methods). Primary cell strains LS857 and LS175 were derived from well differentiated tumors and LS707 was derived from a myxoid tumor (see table 2). […] A primary leiomyosarcoma cell line LM203 was cultured as a control. To confirm that these cultures consisted of malignant tumor-derived cells, cytogenetic analysis was performed.
compound,measurement,value
"CN(CCOc1ccc(CC2SC(=O)NC2=O)cc1)c1ccccn1 (stereo not shown) [BRL49653, rosiglitiazone]","induction of differentiation (lipid accumulation, adipocyte morphology)",Induction of differentiation was also observed
